# In the supplement of paper PMC12823440, “Inhibitors supercharge kinase turnover through native proteolytic circuits” (Nature, 2025):
# By UniProt entry, the sequences of proteins in these tests, tags left out. Where a name states a change or a piece, a line headed by the entry shows the natural chain unless it says otherwise.
# UniProt Q06187: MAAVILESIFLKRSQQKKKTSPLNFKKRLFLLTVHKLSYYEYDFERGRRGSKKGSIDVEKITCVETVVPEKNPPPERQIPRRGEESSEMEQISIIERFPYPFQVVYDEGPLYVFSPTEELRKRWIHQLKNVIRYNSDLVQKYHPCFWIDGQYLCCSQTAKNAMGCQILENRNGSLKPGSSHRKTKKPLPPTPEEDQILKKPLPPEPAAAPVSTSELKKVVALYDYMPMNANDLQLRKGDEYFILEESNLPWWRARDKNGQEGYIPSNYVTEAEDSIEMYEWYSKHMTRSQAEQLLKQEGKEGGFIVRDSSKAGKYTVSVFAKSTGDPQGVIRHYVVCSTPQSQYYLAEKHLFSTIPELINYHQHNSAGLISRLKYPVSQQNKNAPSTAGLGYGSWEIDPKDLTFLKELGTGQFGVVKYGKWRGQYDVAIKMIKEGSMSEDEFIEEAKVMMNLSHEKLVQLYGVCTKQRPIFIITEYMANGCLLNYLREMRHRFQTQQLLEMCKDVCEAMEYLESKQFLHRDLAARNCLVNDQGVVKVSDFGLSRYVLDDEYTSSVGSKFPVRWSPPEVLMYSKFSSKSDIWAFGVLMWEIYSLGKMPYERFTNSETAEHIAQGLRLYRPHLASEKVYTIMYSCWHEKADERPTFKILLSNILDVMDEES
# UniProt Q13555: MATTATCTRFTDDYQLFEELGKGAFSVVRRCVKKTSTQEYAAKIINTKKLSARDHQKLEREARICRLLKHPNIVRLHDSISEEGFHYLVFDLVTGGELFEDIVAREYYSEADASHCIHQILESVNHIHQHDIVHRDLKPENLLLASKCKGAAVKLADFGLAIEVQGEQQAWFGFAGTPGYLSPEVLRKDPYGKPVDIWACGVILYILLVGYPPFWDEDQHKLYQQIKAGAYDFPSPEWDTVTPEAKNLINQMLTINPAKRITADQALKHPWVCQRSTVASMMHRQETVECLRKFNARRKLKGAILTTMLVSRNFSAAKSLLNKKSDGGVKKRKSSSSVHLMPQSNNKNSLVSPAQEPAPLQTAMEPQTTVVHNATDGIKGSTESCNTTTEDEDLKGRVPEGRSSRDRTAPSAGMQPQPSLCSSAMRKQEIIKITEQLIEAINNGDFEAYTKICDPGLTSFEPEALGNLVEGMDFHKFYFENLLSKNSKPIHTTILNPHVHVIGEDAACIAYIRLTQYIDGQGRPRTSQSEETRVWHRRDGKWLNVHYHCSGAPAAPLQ
# UniProt Q00526: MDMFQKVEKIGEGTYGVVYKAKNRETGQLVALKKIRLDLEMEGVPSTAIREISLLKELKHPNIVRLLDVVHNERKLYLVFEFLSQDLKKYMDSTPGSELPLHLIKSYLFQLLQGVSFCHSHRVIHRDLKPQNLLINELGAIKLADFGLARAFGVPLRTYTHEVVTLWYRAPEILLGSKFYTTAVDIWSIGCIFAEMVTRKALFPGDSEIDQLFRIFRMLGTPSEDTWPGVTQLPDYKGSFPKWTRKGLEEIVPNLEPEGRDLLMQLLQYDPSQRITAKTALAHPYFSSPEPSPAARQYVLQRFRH
# UniProt P11802: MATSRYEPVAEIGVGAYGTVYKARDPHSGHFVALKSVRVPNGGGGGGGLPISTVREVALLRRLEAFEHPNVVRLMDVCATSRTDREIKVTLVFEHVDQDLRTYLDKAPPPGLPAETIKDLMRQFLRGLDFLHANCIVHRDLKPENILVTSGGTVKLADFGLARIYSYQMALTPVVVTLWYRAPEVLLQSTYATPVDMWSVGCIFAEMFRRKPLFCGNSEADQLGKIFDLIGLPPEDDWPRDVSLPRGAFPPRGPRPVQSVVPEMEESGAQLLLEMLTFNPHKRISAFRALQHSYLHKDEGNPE
# UniProt Q00535, whole entry, looked up: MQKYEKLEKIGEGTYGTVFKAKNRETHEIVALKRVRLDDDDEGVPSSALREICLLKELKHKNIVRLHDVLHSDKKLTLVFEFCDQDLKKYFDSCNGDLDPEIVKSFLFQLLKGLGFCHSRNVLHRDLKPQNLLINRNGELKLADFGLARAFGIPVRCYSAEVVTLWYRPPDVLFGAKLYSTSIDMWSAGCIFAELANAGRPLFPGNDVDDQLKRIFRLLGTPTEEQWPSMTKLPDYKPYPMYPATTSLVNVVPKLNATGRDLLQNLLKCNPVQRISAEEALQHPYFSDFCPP
# UniProt Q00534, whole entry: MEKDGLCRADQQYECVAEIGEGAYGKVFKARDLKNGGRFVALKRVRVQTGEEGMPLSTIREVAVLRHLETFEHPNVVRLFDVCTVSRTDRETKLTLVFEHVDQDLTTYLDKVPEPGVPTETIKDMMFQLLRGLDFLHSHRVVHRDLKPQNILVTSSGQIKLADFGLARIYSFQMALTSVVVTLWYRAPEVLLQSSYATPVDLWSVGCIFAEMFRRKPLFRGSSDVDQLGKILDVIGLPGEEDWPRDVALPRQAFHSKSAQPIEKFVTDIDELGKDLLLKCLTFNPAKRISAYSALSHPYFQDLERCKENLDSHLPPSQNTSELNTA
# UniProt P50613: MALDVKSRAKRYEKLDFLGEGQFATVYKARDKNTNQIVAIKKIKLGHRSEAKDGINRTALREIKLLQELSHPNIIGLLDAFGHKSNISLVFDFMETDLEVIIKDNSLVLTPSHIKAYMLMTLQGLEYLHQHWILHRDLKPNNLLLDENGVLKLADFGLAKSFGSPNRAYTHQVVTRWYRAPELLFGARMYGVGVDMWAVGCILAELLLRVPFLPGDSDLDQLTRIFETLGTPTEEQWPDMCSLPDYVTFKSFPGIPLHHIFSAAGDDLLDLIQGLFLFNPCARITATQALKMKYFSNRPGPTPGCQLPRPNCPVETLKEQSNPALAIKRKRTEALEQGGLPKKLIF
# UniProt P50750, whole entry: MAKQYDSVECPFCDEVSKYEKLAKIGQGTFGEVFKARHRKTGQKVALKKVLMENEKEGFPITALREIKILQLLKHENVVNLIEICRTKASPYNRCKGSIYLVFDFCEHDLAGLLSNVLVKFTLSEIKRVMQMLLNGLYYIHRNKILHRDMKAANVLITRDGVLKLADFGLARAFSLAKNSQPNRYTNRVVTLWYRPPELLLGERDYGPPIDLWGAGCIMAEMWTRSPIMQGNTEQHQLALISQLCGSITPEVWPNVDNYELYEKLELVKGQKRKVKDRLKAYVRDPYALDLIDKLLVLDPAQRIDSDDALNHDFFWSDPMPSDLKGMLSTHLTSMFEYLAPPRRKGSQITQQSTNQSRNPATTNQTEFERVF
# UniProt O96017, whole entry: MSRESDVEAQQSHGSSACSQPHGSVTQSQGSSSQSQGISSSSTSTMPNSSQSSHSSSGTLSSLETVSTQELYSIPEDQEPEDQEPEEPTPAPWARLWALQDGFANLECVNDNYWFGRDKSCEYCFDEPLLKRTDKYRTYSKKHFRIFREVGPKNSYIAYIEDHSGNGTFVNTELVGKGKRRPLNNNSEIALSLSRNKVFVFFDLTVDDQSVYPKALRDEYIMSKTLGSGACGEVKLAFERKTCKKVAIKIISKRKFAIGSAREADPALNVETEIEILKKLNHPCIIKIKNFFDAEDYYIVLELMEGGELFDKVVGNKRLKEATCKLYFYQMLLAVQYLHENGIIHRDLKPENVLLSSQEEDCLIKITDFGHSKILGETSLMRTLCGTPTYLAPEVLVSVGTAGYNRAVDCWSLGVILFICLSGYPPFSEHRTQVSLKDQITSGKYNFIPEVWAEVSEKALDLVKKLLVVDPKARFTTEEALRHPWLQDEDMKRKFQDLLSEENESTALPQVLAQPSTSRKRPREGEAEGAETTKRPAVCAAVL
# UniProt P48729: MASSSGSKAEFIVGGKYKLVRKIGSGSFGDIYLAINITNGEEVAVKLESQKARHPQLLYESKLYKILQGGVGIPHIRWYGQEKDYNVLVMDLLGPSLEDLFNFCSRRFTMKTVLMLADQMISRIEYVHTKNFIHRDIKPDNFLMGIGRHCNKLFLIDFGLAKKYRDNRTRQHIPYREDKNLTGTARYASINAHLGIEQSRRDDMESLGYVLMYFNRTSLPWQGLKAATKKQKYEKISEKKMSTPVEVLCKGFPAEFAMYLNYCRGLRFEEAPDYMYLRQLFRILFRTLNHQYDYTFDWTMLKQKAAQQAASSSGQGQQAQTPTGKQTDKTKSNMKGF
# UniProt P48730: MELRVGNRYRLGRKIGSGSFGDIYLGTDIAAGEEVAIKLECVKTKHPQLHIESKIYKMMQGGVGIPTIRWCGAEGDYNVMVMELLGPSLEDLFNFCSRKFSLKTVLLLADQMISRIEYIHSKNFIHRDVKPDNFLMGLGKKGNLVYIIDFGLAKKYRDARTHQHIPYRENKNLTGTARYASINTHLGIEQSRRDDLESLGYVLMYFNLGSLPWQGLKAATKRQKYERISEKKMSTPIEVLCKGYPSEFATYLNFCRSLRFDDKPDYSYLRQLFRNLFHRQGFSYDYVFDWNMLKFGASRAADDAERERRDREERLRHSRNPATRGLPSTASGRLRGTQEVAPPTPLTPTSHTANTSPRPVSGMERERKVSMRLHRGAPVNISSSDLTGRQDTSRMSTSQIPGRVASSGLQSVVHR
# UniProt Q08345: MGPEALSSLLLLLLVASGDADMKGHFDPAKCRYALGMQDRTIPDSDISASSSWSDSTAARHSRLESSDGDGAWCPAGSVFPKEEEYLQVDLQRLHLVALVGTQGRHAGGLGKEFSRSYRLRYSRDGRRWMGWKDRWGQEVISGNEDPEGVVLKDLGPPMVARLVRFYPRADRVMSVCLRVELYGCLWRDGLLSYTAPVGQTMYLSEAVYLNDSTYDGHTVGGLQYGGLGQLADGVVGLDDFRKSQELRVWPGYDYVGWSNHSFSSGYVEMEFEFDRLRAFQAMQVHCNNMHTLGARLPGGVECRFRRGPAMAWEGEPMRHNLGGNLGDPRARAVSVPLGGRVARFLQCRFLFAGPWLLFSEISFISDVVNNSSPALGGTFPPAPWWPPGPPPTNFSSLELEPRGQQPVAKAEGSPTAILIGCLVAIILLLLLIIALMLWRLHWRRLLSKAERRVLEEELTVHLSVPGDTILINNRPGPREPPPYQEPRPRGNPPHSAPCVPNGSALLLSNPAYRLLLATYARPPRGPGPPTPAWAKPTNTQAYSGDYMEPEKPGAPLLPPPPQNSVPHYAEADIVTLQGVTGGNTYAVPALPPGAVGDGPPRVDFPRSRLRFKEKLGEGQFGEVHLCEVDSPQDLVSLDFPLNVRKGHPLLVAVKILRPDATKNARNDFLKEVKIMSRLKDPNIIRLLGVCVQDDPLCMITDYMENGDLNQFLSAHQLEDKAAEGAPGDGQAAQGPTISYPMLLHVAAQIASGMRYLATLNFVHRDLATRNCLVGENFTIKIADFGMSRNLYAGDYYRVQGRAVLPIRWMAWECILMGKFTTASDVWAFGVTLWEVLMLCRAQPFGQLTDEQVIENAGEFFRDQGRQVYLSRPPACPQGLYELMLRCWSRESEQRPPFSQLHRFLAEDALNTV
# UniProt Q9Y463, whole entry, looked up: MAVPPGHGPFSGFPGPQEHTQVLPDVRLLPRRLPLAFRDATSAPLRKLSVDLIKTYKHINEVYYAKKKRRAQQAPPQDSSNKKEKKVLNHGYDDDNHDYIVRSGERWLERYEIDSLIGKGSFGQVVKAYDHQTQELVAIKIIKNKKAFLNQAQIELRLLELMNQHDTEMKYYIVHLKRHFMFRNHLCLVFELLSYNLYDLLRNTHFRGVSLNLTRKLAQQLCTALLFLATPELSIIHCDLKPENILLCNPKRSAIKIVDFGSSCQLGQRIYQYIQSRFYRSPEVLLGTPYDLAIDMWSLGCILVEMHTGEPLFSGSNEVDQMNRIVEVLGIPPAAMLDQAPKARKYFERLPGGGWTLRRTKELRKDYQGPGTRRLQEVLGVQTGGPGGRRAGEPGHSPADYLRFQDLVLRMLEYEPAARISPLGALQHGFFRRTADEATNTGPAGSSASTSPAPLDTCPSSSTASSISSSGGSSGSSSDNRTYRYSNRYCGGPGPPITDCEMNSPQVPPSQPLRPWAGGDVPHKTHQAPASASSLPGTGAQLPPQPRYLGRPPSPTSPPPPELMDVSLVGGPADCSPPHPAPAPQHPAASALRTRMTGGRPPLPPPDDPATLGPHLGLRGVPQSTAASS
# UniProt Q92630: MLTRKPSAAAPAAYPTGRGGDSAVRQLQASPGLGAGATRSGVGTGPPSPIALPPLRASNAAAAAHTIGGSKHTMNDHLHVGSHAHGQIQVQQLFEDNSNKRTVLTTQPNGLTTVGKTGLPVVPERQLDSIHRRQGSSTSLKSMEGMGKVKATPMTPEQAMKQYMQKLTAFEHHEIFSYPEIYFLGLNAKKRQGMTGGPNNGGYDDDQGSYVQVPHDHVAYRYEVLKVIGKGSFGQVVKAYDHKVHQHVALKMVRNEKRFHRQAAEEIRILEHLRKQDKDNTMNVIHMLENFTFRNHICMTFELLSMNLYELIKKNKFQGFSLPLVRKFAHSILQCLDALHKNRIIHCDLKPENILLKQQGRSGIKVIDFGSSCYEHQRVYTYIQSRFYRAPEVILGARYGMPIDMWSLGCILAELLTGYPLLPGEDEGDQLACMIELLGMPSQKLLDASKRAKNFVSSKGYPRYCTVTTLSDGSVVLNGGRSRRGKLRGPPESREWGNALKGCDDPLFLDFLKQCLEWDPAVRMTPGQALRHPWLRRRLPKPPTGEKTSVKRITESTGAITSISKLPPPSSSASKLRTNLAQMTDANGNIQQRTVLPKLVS
# The other results are listed elsewhere or left out. Hit calls seldom repeat between salt and free forms of one compound.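 Kinases, fused to nanoluciferase, were expressed in K562 cells; luminescence was measured every 4 h from 2 to 18 h as percent of control (DMSO = 100%, positive control = 0%). A time point is decreased if signal falls significantly (2 sigma). Hits were called by the authors by a rule that is not shown; the count of time points alone does not decide it.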
# Legend:
# Assay in all cases: kinase-Nluc reporter destabilization hit call (1 = scored as downregulated) (binary); higher = compound decreases kinase abundance
# Details in all cases: K562; 2-18 h
# BRAF_V600E = test system: BRAF_V600E
# BTK = BTK (UniProt Q06187)
# CAMK2A = CAMK2A (UniProt Q9UQM7)
# CAMK2G = CAMK2G (UniProt Q13555)
# CDK10 = CDK10 (UniProt Q15131)
# CDK2 = CDK2 (UniProt P24941)
# CDK3 = CDK3 (UniProt Q00526)
# CDK4 = CDK4 (UniProt P11802)
# CDK5 = CDK5 (UniProt Q00535)
# CDK6 = CDK6 (UniProt Q00534)
# CDK7 = CDK7 (UniProt P50613)
# CDK9 = CDK9 (UniProt P50750)
# CHEK2 = CHEK2 (UniProt O96017)
# CSF1R = CSF1R (UniProt P07333)
# CSK = CSK (UniProt P41240)
# CSNK1A1 = CSNK1A1 (UniProt P48729)
# CSNK1D = CSNK1D (UniProt P48730)
# DDR1 = DDR1 (UniProt Q08345)
# DYRK1B = DYRK1B (UniProt Q9Y463)
# DYRK2 = DYRK2 (UniProt Q92630)
SMILES,kinase-Nluc reporter destabilization hit call (BRAF_V600E),kinase-Nluc reporter destabilization hit call (BTK),kinase-Nluc reporter destabilization hit call (CAMK2A),kinase-Nluc reporter destabilization hit call (CAMK2G),kinase-Nluc reporter destabilization hit call (CDK10),kinase-Nluc reporter destabilization hit call (CDK2),kinase-Nluc reporter destabilization hit call (CDK3),kinase-Nluc reporter destabilization hit call (CDK4),kinase-Nluc reporter destabilization hit call (CDK5),kinase-Nluc reporter destabilization hit call (CDK6),kinase-Nluc reporter destabilization hit call (CDK7),kinase-Nluc reporter destabilization hit call (CDK9),kinase-Nluc reporter destabilization hit call (CHEK2),kinase-Nluc reporter destabilization hit call (CSF1R),kinase-Nluc reporter destabilization hit call (CSK),kinase-Nluc reporter destabilization hit call (CSNK1A1),kinase-Nluc reporter destabilization hit call (CSNK1D),kinase-Nluc reporter destabilization hit call (DDR1),kinase-Nluc reporter destabilization hit call (DYRK1B),kinase-Nluc reporter destabilization hit call (DYRK2)
C=CC(=O)N1CC[C@@H](Oc2nc(Nc3ccc(N4CCC(N5CCN(C)CC5)CC4)cc3)c(C(N)=O)nc2CC)C1 [Naquotinib (mesylate)] (2.5 µM),inactive: 0,inactive: 0,inactive: 0,inactive: 0,inactive: 0,inactive: 0,inactive: 0,inactive: 0,inactive: 0,inactive: 0,inactive: 0,inactive: 0,inactive: 0,inactive: 0,inactive: 0,inactive: 0,inactive: 0,inactive: 0,inactive: 0,inactive: 0
Cc1c(C)c(NCC(=O)N(C)C2CCN(Cc3ccc(C(N)=O)cc3)CC2)c(C)c(C)c1N (10 µM),inactive: 0,inactive: 0,inactive: 0,inactive: 0,inactive: 0,inactive: 0,inactive: 0,inactive: 0,inactive: 0,inactive: 0,inactive: 0,inactive: 0,inactive: 0,inactive: 0,inactive: 0,inactive: 0,inactive: 0,inactive: 0,inactive: 0,inactive: 0
COC(=O)Nc1ccc(-c2nc(N3CCOCC3)c3cnn(C4CCN(C(=O)OC)CC4)c3n2)cc1 (10 µM),inactive: 0,inactive: 0,inactive: 0,inactive: 0,inactive: 0,inactive: 0,inactive: 0,inactive: 0,inactive: 0,inactive: 0,inactive: 0,inactive: 0,inactive: 0,inactive: 0,inactive: 0,inactive: 0,inactive: 0,inactive: 0,inactive: 0,inactive: 0
COc1cc(N2CCOCC2)ccc1Nc1ncc(F)c(Nc2ccccc2NS(C)(=O)=O)n1 (10 µM),inactive: 0,inactive: 0,inactive: 0,inactive: 0,inactive: 0,inactive: 0,inactive: 0,inactive: 0,inactive: 0,inactive: 0,inactive: 0,inactive: 0,inactive: 0,inactive: 0,inactive: 0,inactive: 0,inactive: 0,inactive: 0,inactive: 0,inactive: 0
Cn1ncc(NC(=O)c2nc(-c3c(F)cccc3F)sc2N)c1N1CC[C@@H](N)[C@H](F)CC1 (10 µM),inactive: 0,inactive: 0,inactive: 0,inactive: 0,inactive: 0,inactive: 0,inactive: 0,inactive: 0,inactive: 0,inactive: 0,inactive: 0,inactive: 0,inactive: 0,inactive: 0,inactive: 0,inactive: 0,inactive: 0,inactive: 0,inactive: 0,inactive: 0
O=C1Nc2ccc(CN3C(=O)CSC3=O)cc2/C1=C/c1cc(CN2CCOCC2)c[nH]1 (10 µM),inactive: 0,inactive: 0,inactive: 0,inactive: 0,inactive: 0,inactive: 0,inactive: 0,inactive: 0,inactive: 0,inactive: 0,inactive: 0,inactive: 0,inactive: 0,inactive: 0,inactive: 0,inactive: 0,inactive: 0,inactive: 0,inactive: 0,inactive: 0
CC(C)n1c([C@H](C)Nc2ncnc(N)c2C#N)cc2cccc(-c3ccc(=O)n(C)c3)c2c1=O (10 µM),inactive: 0,inactive: 0,inactive: 0,inactive: 0,inactive: 0,inactive: 0,inactive: 0,inactive: 0,inactive: 0,inactive: 0,inactive: 0,inactive: 0,inactive: 0,inactive: 0,inactive: 0,inactive: 0,inactive: 0,inactive: 0,inactive: 0,inactive: 0
O=C1Nc2ccc(I)cc2/C1=C/c1cc(Br)c(O)c(Br)c1 (10 µM),inactive: 0,inactive: 0,inactive: 0,inactive: 0,inactive: 0,inactive: 0,inactive: 0,inactive: 0,inactive: 0,inactive: 0,inactive: 0,active: 1,inactive: 0,inactive: 0,inactive: 0,inactive: 0,inactive: 0,inactive: 0,inactive: 0,inactive: 0
Nc1[nH]nc2nc(-c3ccc(NS(=O)(=O)c4cc(Cl)ccc4Cl)cc3)cnc12 (10 µM),inactive: 0,inactive: 0,inactive: 0,inactive: 0,inactive: 0,inactive: 0,inactive: 0,inactive: 0,inactive: 0,inactive: 0,inactive: 0,inactive: 0,inactive: 0,inactive: 0,inactive: 0,inactive: 0,inactive: 0,inactive: 0,inactive: 0,inactive: 0

# As entered above:
# Under kinase-Nluc reporter destabilization hit call (DYRK2), Cn1ncc(NC(=O)c2nc(-c3c(F)cccc3F)sc2N)c1N1CC[C@@H](N)[C@H](F)CC1 (10 µM) reads inactive: 0
# Under kinase-Nluc reporter destabilization hit call (DYRK2), Cc1c(C)c(NCC(=O)N(C)C2CCN(Cc3ccc(C(N)=O)cc3)CC2)c(C)c(C)c1N (10 µM) reads inactive: 0
